Square brackets hold non-standard residues; d marks the D form. Peptide text beside a SMILES is read from it. d(hArg(Et2)) = CCN=C(NCC)NCCCC[C@@H](N)C(=O)O; hArg(Et2) = CCN=C(NCC)NCCCC[C@H](N)C(=O)O; dPhe(4-Cl) = N[C@H](Cc1ccc(Cl)cc1)C(=O)O; d2Nal = N[C@H](Cc1ccc2ccccc2c1)C(=O)O; d3Pal = N[C@H](Cc1cccnc1)C(=O)O
Tested on: premature LH surges
Experiment: phase II double-blind dose-finding study of ganirelix in women undergoing controlled ovarian hyperstimulation with recFSH
Format: in vivo, human
Description: In order to establish the minimum effective dose of ganirelix to prevent premature LH surges in women undergoing COH with recombinant FSH, a double-blind dose-finding study was performed with 6 test doses ranging between 2 mg and 0.0625 mg ganirelix.
This study was a phase II, multi-centre, double-blind, randomized, dose-finding study to assess the efficacy of the GnRH-antagonist ganirelix to prevent premature LH surges in women undergoing controlled ovarian hyperstimulation with recFSH. The dosages of ganirelix are administered by one daily SC administration.
RecFSH treatment started on day 2 of the menstrual cycle (treatment day -5) by a once daily SC injection. From treatment day -5 through day -1 the dose of recFSH was fixed at 150 IU daily. After 5 days of recFSH treatment (day 7 of the menstrual cycle), ganirelix treatment was started by daily SC administration. Treatment continued until and including the last day of recFSH administration. During ganirelix treatment, the dose of recFSH was adjusted depending on the individual ovarian response as assessed by daily ultra sonographic scan (USS). As soon as at least 3 folicles ≧17 mm measured by USS were observed, hCG was administered for ovulation induction. About 30-36 hours thereafter oocyte pick-up was performed followed by in vitro fertilization (IVF) with or without intracytoplasmic sperm injection (ICSI). No more than 3 embryos were replaced.
If during ganirelix treatment a premature LH rise occurred e.g. at least one value of serum LH ≧15 IU/L according to the local LH immunoassay the investigator canceled the cycle or tried to rescue the cycle by giving hCG prematurely. In addition, the investigator notified the sponsor about the occurrence of the LH rise and the central laboratory was requested to confirm the LH rise was ≧10 IU/L according to the central LH immunoassay. Subsequently, all data of such subject with a premature LH rise were forwarded to an Independent Advisory Committee which was installed in order to advice on stopping a treatment arm in case of LH rises during ganirelix treatment.
During the study, some investigators informed the sponsor on one or more cases of extremely low serum LH and failing estradiol concentrations as well as follicle growth arrest after starting ganirelix treatment. For this reason the External Independent Advisory Committee was requested to review all clinical data available in order to evaluate whether these observations were dose related and whether, in their opinion, there was reason to stop one or more treatment arms.
In addition, the Independent Advisory Committee reviewed all rises of LH (≧15 IU/L according to the local LH immunoassay and ≧10 IU/L according to the central LH immunoassay) during ganirelix treatment. Based on their evaluation the External Committee advised the sponsor to stop the highest (2 mg) and lowest (0.0625 mg) treatment dose of ganirelix. The study was completed for the other dosage groups.
In total 333 subjects started recFSH treatment and 332 subjects started ganirelix treatment. Because of major protocol violation 3 subjects were excluded from the analysis. The final number of patients per dosing group are included in Table 1.

CCN=C(NCC)NCCCC[C@H](NC(=O)[C@H](CC(C)C)NC(=O)[C@@H](CCCCNC(=NCC)NCC)NC(=O)[C@H](Cc1ccc(O)cc1)NC(=O)[C@H](CO)NC(=O)[C@@H](Cc1cccnc1)NC(=O)[C@@H](Cc1ccc(Cl)cc1)NC(=O)[C@@H](Cc1ccc2ccccc2c1)NC(C)=O)C(=O)N1CCC[C@H]1C(=O)N[C@H](C)C(N)=O [ganirelix, N-Acetyl-3-(2-naphtyl)-D-alanyl-4-chloro-D-phenylalanyl-3-(3-pyridyl)-D-alanyl-L-seryl-L-tyrosyl-N^ω,N^ω-diethyl-D-homoarginyl-L-leucin-N^ω,N^ω-diethyl-Lhomoarginyl-L-propyl-D-alanylamide acetate] (Ac-[d2Nal][dPhe(4-Cl)][d3Pal]SY[d(hArg(Et2))]L[hArg(Et2)]P[dA]-NH2)
Median serum FSH at the day of hCG (= last day of ganirelix) (0.0625 mg daily SC): 9.1 IU/L | Median serum FSH at the day of hCG (= last day of ganirelix) (0.125 mg daily SC): 9.0 IU/L | Median serum FSH at the day of hCG (= last day of ganirelix) (0.25 mg daily SC): 9.1 IU/L | Median serum FSH at the day of hCG (= last day of ganirelix) (0.5 mg daily SC): 10.2 IU/L | Median serum FSH at the day of hCG (= last day of ganirelix) (1 mg daily SC): 9.8 IU/L | Median serum FSH at the day of hCG (= last day of ganirelix) (2 mg daily SC): 8.8 IU/L

— patent publication US6653286B1, “Gonadotropin releasing hormone antagonist” (Akzo Nobel NV, priority 1997, dated 2003)
